Measured values reported in ChEMBL document CHEMBL1141686, “Discovery of a novel class of PPARdelta partial agonists” (Bioorg Med Chem Lett, 2008).
pIC50: −log10 of the molar value.

Target: T1, Peroxisome proliferator-activated receptor gamma (Homo sapiens, UniProt P37231)
T1 sequence (P37231 whole entry): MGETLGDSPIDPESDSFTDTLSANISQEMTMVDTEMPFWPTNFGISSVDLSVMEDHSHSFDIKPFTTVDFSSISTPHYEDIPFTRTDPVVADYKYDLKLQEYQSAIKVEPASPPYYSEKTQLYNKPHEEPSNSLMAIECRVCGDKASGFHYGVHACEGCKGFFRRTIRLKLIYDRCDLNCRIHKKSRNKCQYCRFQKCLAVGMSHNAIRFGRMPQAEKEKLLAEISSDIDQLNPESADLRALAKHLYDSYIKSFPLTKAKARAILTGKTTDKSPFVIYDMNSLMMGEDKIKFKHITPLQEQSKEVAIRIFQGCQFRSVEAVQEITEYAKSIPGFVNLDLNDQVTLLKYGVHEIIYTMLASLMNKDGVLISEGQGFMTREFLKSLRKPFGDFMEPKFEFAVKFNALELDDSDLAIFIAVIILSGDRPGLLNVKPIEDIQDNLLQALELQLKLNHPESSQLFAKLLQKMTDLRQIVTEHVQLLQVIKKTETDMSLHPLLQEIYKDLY

COc1cccc2ccn(S(=O)(=O)c3cccc(C(=O)Nc4ccc(C)cc4C(=O)O)c3)c12 gave a pIC50 of 5.30.

Cc1cccc(NC(=O)c2cccc(S(=O)(=O)N3CCc4ccccc4C3)c2)c1C(=O)O was tested, and the pIC50 was less than 5.00.

Cc1cccc(C(=O)O)c1NC(=O)c1cccc(S(=O)(=O)N2CCc3ccccc3C2)c1 gave a pIC50 of less than 5.00.
